# PubChem BioAssay AID1259424 | University of Nebraska Medical Center | 2018
# Test: 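Find knockdowns that reproduce the expression shifts seen after KSR1 loss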 (primary screen)
# Cell system: human HCT116 colon cancer cells
# Reagents: siRNA pool against human genes, 50 nM
# Measurement: 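Six signature mRNAs by branched-DNA multiplex assay, scaled to two housekeeping genes and non-targeting median, log2; matched to mean KSR1 knockdown profile by Pearson correlation and euclidean distance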
# Direction: mean correlation with KSR1 profile and KSR1 correlation: higher = expression change more like KSR1 knockdown; mean distance from KSR1 profile: higher = expression change less like KSR1 knockdown
# Shown is a random part of about 14,000 reagents. 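Higher correlation or smaller distance means closer resemblance to KSR1 loss; control wells, including KSR1 knockdowns, recur on many plates.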 Not given: the time to read-out.
gene symbol,mean correlation with KSR1 profile,mean distance from KSR1 profile,"KSR1 correlation, replicate 1","KSR1 correlation, replicate 2","KSR1 correlation, replicate 3"
GAL3ST1 (galactose-3-O-sulfotransferase 1),-0.777,3.19,-0.799,-0.707,-0.171
HSPA2 (heat shock protein family A (Hsp70) member 2),0.149,1.93,-0.148,0.182,-0.0901
SMC6 (structural maintenance of chromosomes 6),-0.467,2.42,-0.223,0.397,-0.691
SMARCA4,-0.246,1,-0.269,-0.271,0.558
"PCDHGA6 (protocadherin gamma subfamily A, 6)",-0.166,2.1,-0.228,-0.135,-0.127
SEC62 (SEC62 preprotein translocation factor),0.675,3.98,0.754,0.587,0.68
"RAB20 (RAB20, member RAS oncogene family)",0.15,1.22,-0.000509,0.112,0.252
OXTR (oxytocin receptor),0.745,1.27,0.609,0.845,0.832
IMMT (inner membrane mitochondrial protein),0.197,0.898,0.263,0.25,-0.0664
MFHAS1 (multifunctional ROCO family signaling regulator 1),0.779,1.84,0.855,0.586,0.625
"TFB2M (transcription factor B2, mitochondrial)",0.701,0.843,0.712,0.703,0.705
MAP3K14 (mitogen-activated protein kinase kinase kinase 14),-0.356,2.76,-0.263,-0.346,-0.451
FYCO1 (FYVE and coiled-coil domain autophagy adaptor 1),0.882,0.812,0.922,0.885,0.833
CEP63 (centrosomal protein 63),0.104,2.09,-0.211,0.133,0.153
SYNPO (synaptopodin),0.187,2.65,0.494,-0.0921,0.0448
CD55 (CD55 molecule (Cromer blood group)),-0.338,1.49,-0.318,-0.432,-0.409
CSNK1E (casein kinase 1 epsilon),-0.00842,3.69,0.0579,-0.0154,-0.183
RRAGD (Ras related GTP binding D),-0.0483,1.3,-0.0132,-0.119,0.139
RTL8C (retrotransposon Gag like 8C),-0.35,2.3,-0.22,-0.319,-0.368
TRIM25 (tripartite motif containing 25),0.536,1.08,0.319,0.784,0.415
ZFYVE9 (zinc finger FYVE-type containing 9),-0.671,2.03,-0.543,-0.383,-0.808
SIRPB1 (signal regulatory protein beta 1),-0.324,2.62,-0.387,0.0485,-0.291
MRPL11 (mitochondrial ribosomal protein L11),-0.487,3.2,0.0402,-0.598,0.0707
GTF2F2 (general transcription factor IIF subunit 2),-0.715,1.62,-0.304,-0.926,-0.725
CNGA3 (cyclic nucleotide gated channel subunit alpha 3),-0.167,1.93,-0.23,-0.303,-0.122
RANBP10 (RAN binding protein 10),-0.27,2.16,-0.297,-0.547,-0.369
ZNF408 (zinc finger protein 408),0.308,2.25,0.289,0.483,0.253
DIRAS2 (DIRAS family GTPase 2),-0.318,2.53,-0.423,-0.222,-0.707
UCP1 (uncoupling protein 1),0.0864,1.45,0.0933,-0.162,0.307
SLC7A7,-0.281,2.8,-0.0678,-0.415,-0.267
"PSMC2 (proteasome 26S subunit, ATPase 2)",-0.622,3.91,-0.64,-0.549,-0.646
TBX22 (T-box transcription factor 22),0.648,1.01,0.445,0.691,0.565
FAM53B (family with sequence similarity 53 member B),-0.531,1.36,-0.252,-0.249,-0.634
IL10RB (interleukin 10 receptor subunit beta),-0.684,1.93,-0.754,-0.751,-0.384

Records listed so far whose gene name starts with I or i (2):
gene symbol,mean correlation with KSR1 profile,mean distance from KSR1 profile,"KSR1 correlation, replicate 1","KSR1 correlation, replicate 2","KSR1 correlation, replicate 3"
IMMT (inner membrane mitochondrial protein),0.197,0.898,0.263,0.25,-0.0664
IL10RB (interleukin 10 receptor subunit beta),-0.684,1.93,-0.754,-0.751,-0.384
